“And” between values parts separate entries of the source, which are not always exact repeats. Equal entries are not always repeated.
Key:
[1] = general procedure: Fmoc solid-phase peptide synthesis; preloaded Fmoc-Thr(tBu)-PEG-PS resin (B-chain); HBTU/HOBt-DIPEA
[2] = general procedure: Fmoc solid-phase peptide synthesis; Fmoc-Thr(tBu)-PEG-PS resin; HBTU/HOBt-DIPEA; details: whole synthesis, scale 0.20 mmol
[3] = general procedure: Fmoc solid-phase peptide synthesis; Fmoc-β-Asn(OtBu)-Rink Amide resin; HBTU/HOBt-DIPEA; details: whole synthesis, scale 100 μmol
[4] = general procedure: Fmoc solid-phase peptide synthesis; Fmoc-Asp(OtBu)-Wang resin; HBTU/HOBt-DIPEA; details: whole synthesis, scale 100 μmol
[5] = late stage modification step, run 1

For “c[A6,11]-Dicarba-[A7]-Cys(Pyr)-[A20]-Cys(Acm) Human Insulin Glargine A-Chain 72”, the step yield ([1]; late stage modification step) was 1% and the “final HPLC purity” value [1, 5] was 56% purity and >99% purity.
With “[B19]-Cys(Acm) Human Insulin Lispro B-Chain” the “crude HPLC purity” value [2] was 75%, the crude mass [2] was 630 mg and the “final HPLC purity” value [2] was 94%. It also gave an isolated mass [2] of 82 mg and an isolated yield [2] of 12%.
With “[B19]-Cys(Acm) Human Insulin Glargine B-Chain 64” the “crude HPLC purity” value [2] was 48% purity, the “final HPLC purity” value ([1]; whole synthesis) was 96% purity and the isolated yield ([1]; whole synthesis) was 6%.
For “c[Δ^46,11]-Dicarba-[7]-Cys(Pyr)[20]-Cys(Acm) Insulin A-Chain 10 [10(I)]”, the “final HPLC purity” value ([1]; late stage modification step) was >99% and the step yield [1, 5] was 4%.
For “desA1-5-[A6,11]-Agl-[A7]-Cys(^tBu)-[A20]-Cys(Acm)-[A21]-β-Asn Human Insulin A-Chain”, the “crude HPLC purity” value [3] was 85%.
For “c[Δ^4A6,11]-Dicarba-[A7]-Cys(^tBu)-[A20]-Cys(Acm) Insulin A-Chain ψ9”, the “crude HPLC purity” value ([1]; whole synthesis) was 80% purity.
For “desA1-5-[A6,11]-Agl-[A7]-Cys(^tBu)-[A20]-Cys(Acm)-[A21]-Asp Human Insulin A-Chain”, the “crude HPLC purity” value [4] was 70%.
For “c[Δ^46,11]-Dicarba-[7]-Cys(Pyr)[20]-Cys(Acm) Insulin A-Chain 10 [10(II)]”, the “final HPLC purity” value ([1]; late stage modification step) was >99%, the step yield [1, 5] was 3% and the step yield ([1]; late stage modification step, run 2) was 34%.

Reference: patent US8748570B2 (priority 2010, dated 2014)
